Laboratory results from PubChem BioAssay AID1347075 (National Center for Advancing Translational Sciences (NCATS), 2019).
Among all 400,000 compounds or so, about 5,500 (1.4%) were called active. Inconclusive results, whose numbers are uncertain, are shown with a selection of clear calls. Calls come from the whole dose curve; as a rule, active = well fitted cell-killing curve with a large enough effect; inconclusive = small, poorly fitted or top-dose-only effect, or effect the other way; inactive = flat fitted curve, though single readings scatter. Where the call is inconclusive, the potency comes from a doubtful curve fit.

test: qHTS assay for MDR1-selective chemotherapeutics: Primary screen using the parental adenocarcinoma cell KB-3-1; details: KB-3-1 viability, CellTiter-Glo ATP luminescence, 72 h; activity change, negative = cytotoxic: at 46.1 µM (top of the series); note: nearly all actives have a fitted effect of over 60% in size
Summary of the method: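 Screening of KB-3-1 cells (DMEM, 10% FBS, phenol-red free) ran from lowest to highest compound concentration; after 72 h at 37 °C viability was read luminescently and curves fitted.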
% is set by controls: 0 for no effect and ±100 for the full control effect; potency is the fitted concentration of half-maximal effect.

Row | Compound | Potency | activity change, negative = cytotoxic
1 | CC(C)OCCCN1C(=O)c2[nH]nc(-c3ccccc3O)c2C1c1ccccc1F (centres undefined) | inactive | 
2 | O=C(CN1CCN(C(C(=O)Nc2cc(C(F)(F)F)ccc2Cl)c2ccccc2)CC1)NC1CC1 (centres undefined) | inconclusive: 29.1 µM [cytotoxic, single point] | 
3 | Cc1cc(Oc2ccccc2)nc(NCc2ccccc2)n1 | active: 16.4 µM | 
4 | C=CCOc1ccccc1CNn1c(C)n[nH]c1=S | inconclusive: 29.1 µM [cytotoxic, single point] | 
5 | Cc1cccc(-n2cc(CN3CCN(c4ccccn4)CC3)c(-c3cccc(F)c3)n2)c1 | inconclusive: 25.9 µM [cytotoxic, single point] | 
6 | Cc1cccc(NC(=S)NC2CCCC2)n1 | inactive | 
7 | CCCN1C(=O)c2ccccc2NC1c1ccc(OC)c(COc2cccc(OC)c2)c1 (centres undefined) | inconclusive: 20.6 µM [cytotoxic, single point] | 
8 | Cc1ccc(-c2cn3nc(N4CCCC(C(=O)NCc5ccc(F)cc5)C4)sc3n2)cc1 (centres undefined) | inactive | 
9 | Cc1cc(C(=O)NNC(=O)c2sccc2C)c(C)o1 |  | inconclusive: 1.29%
10 | COc1ccc(NC(=O)C2(C)Cc3c(-c4ccc(NC(C)=O)cc4)ccnc3O2)cn1 (centres undefined) | inconclusive: 29.1 µM [cytotoxic, single point] | 
11 | COc1ccc(-n2nc(C(=O)NCC(=O)N3CC(C)CC(C)C3)c3ccccc3c2=O)cc1 (centres undefined) | inactive | 
12 | C=CCn1c(SCC(N)=O)nnc1-c1cccc(Br)c1 | inactive | 
13 | COc1ccc(N2CCN(Cc3nc4c(c(=O)n(C)c(=O)n4C)n3C(C)C)CC2)cc1 | active: 16.4 µM | 
14 | Cn1nc(C(F)(F)F)c(C#N)c1N1CCN(c2ccc(F)cc2)CC1 | inconclusive: 18.4 µM [cytotoxic, partial curve, poor fit] | 
15 | CC(C)C1Cc2c(sc3[nH]c(=S)n(Cc4ccccc4)c(=O)c23)CO1 (centres undefined) | active: 20.6 µM | 
16 | Cc1ccc2nc(CN3CCN(S(=O)(=O)c4ccc(C(C)C)cc4)CC3)oc2c1 | inconclusive: 29.1 µM [cytotoxic, single point] | 
17 | CCN1C=CC2=C(C#N)C(N)C(C#N)(C#N)C(c3ccccc3C(F)(F)F)C2C1 (centres undefined) | inconclusive: 16.4 µM [cytotoxic, partial curve] | 
18 | CC(C)N(CC(N)=O)c1ncnc2sc(-c3ccccc3)cc12 | inactive | 
19 | CN(C)c1ccc(/C=C2\N=C(c3ccc(Cl)c([N+](=O)[O-])c3)NC2=O)cc1 | inconclusive: 7.31 µM [cytotoxic, full curve, poor fit] | 
20 | COc1ccccc1NC(=O)Nc1nc(CC(=O)Nc2ccc(F)c(F)c2)cs1 | inconclusive: 29.1 µM [cytotoxic, single point] | 
21 | Cc1cc(=O)n2cn[nH]c2n1 | inconclusive: 29.1 µM [rising, single point] | 
22 | CCOC(=O)N1CCC(NC(=O)c2cc3c(-c4ccccc4F)nn(C)c3s2)CC1 | inconclusive: 32.6 µM [cytotoxic, partial curve, poor fit] | 

Already shown: three of the compounds above.
Row | Compound | Potency | activity change, negative = cytotoxic
17 | CCN1C=CC2=C(C#N)C(N)C(C#N)(C#N)C(c3ccccc3C(F)(F)F)C2C1 (centres undefined) | inconclusive: 16.4 µM [cytotoxic, partial curve] | 
18 | CC(C)N(CC(N)=O)c1ncnc2sc(-c3ccccc3)cc12 | inactive | 
19 | CN(C)c1ccc(/C=C2\N=C(c3ccc(Cl)c([N+](=O)[O-])c3)NC2=O)cc1 | inconclusive: 7.31 µM [cytotoxic, full curve, poor fit] | 

Later entries:

Row | Compound | Potency | activity change, negative = cytotoxic
23 | Cc1c(C(=O)NCc2ccc3c(c2)OCO3)sc(=O)n1Cc1ccc(S(=O)(=O)N(C)C)cc1 | inconclusive: 3.26 µM [cytotoxic, full curve, poor fit] | 
24 | COc1ccc(CNc2nc(-c3ccc(Cl)cc3)cc(C(F)(F)F)n2)cc1 | inactive | 
25 | CCOc1ccc(C(C)=O)cc1COC(=O)CNC(=O)C12CC3CC(CC(C3)C1)C2 | inactive | 
26 | C#CCOCCOCCOCCNc1nc(N2CCOCC2)nc(N2CCN(C(=O)[C@H](CCC(=O)O)n3cc([C@@H](N)CCCCN)nn3)CC2)n1 | inconclusive: 16.4 µM [rising, single point] | 
27 | O=C(NCCc1ccc(Cl)cc1)c1ccc2ccccc2n1 | inconclusive: 29.1 µM [cytotoxic, single point] | 
28 | Cc1cc(N2CCN(c3cccc(C)c3C)CC2)nc(-c2ccccc2)n1 | inconclusive: 25.9 µM [cytotoxic, single point] | 
29 | CCN(CC)CCNC(=O)c1[nH]c2ccc(OCc3ccccc3)cc2c1C | inconclusive: 29.1 µM [cytotoxic, single point] | 
30 | O=C(NC1CC1(c1ccccc1)c1ccccc1)c1ccccc1 (centres undefined) | inconclusive: 20.6 µM [cytotoxic, partial curve] | 
31 | CN(C)c1ccc(C(=O)Nc2ccc(S(=O)(=O)NC3=NCCCCC3)cc2)cc1 | inconclusive: 5.8 µM [rising, partial curve, poor fit] | 
32 | O=C1C(=C2CCCCC2)SC(=S)N1Cc1ccco1 | inconclusive: 29.1 µM [cytotoxic, single point] | 
33 | CCc1nnc(NC(=O)CCC(=O)NCc2ccc(C)cc2)s1 | inactive | 
34 | Cn1c(=O)c2c(-c3ccccc3)n(-c3cc([N+](=O)[O-])ccc3O)cc2n(C)c1=O | inactive | 
35 | Cc1cc2nc(C3CCN(C(=S)NCC(C)C)CC3)[nH]c2cc1C | inconclusive: 16.4 µM [cytotoxic, single point] | 
36 | O=C(CSc1n[nH]c(-c2ccco2)n1)Nc1ccccc1F |  | inconclusive: 0%
37 | Cc1ccc(-c2csc3ncnc(Sc4nnc(CN5CCCCCC5=O)o4)c23)cc1 | active: 11.6 µM | 
38 | CCS(=O)c1ccccc1C(=O)OC(C)C(=O)Nc1ccc(S(=O)(=O)N2CCCC2)cc1 (centres undefined) | inconclusive: 29.1 µM [rising, single point] | 
39 | CCOC(=O)c1c(-c2ccccc2)csc1NC(=O)CSc1nc(N)cc(N)n1 | active: 6.51 µM | 
40 | CCOC(=O)c1cc(-c2sc(NC(=O)c3ccccc3)nc2C)n(Cc2ccccc2)n1 | active: 23.1 µM | 
41 | C=C1C2=C(C(=O)N1OC)[C@@H](O)[C@@](C)(O)[C@@H](CCCCC)O2 | active: 18.4 µM | 
42 | COc1ccccc1S(=O)(=O)Cc1ccc(C(=O)N2CCN(c3cc(Cl)ccc3C)CC2)o1 | inconclusive: 23.1 µM [cytotoxic, single point] | 
43 | C=CCNc1nc2cc(-c3ccc(C(=O)N4CCOCC4)cc3)sc2c(=O)n1C | inconclusive: 13 µM [cytotoxic, partial curve] | 
44 | COc1cc(C2CC(=O)Nc3ccc4ccccc4c32)ccc1OC(=O)C(C)C (centres undefined) | inactive | 
